Source: patent US10815230B2, “Casein kinase 1 delta inhibitor” (ELECTROPHORETICS LIMITED, priority 2015, dated 2020)
For at least one compound, name, drawing or mass did not settle the structure.

System: non-mutant kinases
Assay: KINOMEscan kinase screening panel, binding capacity and Selectivity Score
Conditions: 10 μM, 395 non-mutant kinases

CNc1c(C(N)=O)c2ccccn2c1C(=O)c1ccc(F)cc1 [Compound A, 2-methyl-amino-3-[(4-fluorophenyl)carbonyl]indolizine-1-carboxamide]
Number of Hits S (1) (% Ctrl<1): 3
S-score S (1) (% Ctrl<1): 0.008
Number of Hits S (10) (% Ctrl<10): 8
S-score S (10) (% Ctrl<10): 0.02
Number of Hits S (35) (% Ctrl<35): 14
S-score S (35) (% Ctrl<35): 0.035
